The target in test [1] is T1, MKK5 (split Venus fusion, BiFC in onion epidermis) (Arabidopsis) (UniProt Q8RXG3).
T1 sequence: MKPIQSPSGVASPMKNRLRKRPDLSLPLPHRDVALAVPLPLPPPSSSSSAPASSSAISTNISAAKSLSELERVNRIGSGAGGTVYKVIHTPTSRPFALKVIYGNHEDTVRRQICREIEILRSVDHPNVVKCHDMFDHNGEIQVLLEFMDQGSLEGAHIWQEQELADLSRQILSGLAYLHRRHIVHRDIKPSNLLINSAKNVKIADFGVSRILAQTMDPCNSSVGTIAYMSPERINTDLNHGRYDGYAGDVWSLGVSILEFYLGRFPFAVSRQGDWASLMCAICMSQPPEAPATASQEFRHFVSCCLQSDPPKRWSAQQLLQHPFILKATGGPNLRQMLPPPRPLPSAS
Kind of test: split reporter; BiFC with split monomeric Venus (binary V10-BiFC vectors), transient, biolistic bombardment of onion epidermal cells.

Amino acid sequences for entries named in this document (tags omitted). A change or cut given only in a name is not applied to a line headed by its entry.
UniProt F4JZD0: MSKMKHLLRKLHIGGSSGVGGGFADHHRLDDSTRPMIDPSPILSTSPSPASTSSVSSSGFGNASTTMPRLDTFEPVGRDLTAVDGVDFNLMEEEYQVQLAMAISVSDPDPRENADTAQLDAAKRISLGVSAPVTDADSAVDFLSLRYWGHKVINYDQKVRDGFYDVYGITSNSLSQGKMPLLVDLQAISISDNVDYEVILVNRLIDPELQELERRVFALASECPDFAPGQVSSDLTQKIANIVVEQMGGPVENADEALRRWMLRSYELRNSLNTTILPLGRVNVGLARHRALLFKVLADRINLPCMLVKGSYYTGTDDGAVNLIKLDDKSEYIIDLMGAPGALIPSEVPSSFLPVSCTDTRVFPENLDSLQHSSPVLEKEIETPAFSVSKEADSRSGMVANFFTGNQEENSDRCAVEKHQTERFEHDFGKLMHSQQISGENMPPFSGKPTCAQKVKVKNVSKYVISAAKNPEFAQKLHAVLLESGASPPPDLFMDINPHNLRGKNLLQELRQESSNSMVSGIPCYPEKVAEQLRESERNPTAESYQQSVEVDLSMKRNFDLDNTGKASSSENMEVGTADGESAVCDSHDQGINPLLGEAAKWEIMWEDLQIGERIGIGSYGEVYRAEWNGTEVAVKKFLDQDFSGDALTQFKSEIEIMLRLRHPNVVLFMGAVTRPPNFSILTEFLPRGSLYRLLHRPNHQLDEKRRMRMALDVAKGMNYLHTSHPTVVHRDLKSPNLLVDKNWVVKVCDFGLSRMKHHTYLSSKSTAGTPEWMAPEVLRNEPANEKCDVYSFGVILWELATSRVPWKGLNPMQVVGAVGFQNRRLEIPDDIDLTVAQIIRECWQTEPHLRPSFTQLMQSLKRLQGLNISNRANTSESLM

Test [2] concerns the target T2, MKK2 (split Venus fusion, BiFC in onion epidermis) (Arabidopsis) (UniProt Q9S7U9).
T2 sequence: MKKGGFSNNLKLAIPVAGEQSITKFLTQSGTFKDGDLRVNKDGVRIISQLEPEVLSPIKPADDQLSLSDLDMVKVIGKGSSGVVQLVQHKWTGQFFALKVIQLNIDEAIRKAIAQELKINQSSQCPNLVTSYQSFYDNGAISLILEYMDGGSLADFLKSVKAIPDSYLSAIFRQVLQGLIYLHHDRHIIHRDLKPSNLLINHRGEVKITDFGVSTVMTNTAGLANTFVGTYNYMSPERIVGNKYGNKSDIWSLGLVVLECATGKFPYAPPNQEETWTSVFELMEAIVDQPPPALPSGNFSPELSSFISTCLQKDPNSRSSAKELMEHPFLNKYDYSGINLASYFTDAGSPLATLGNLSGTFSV
Described as above.

Test [3] concerns the target T3, MKK1 (split Venus fusion, BiFC in onion epidermis) (Arabidopsis) (UniProt Q94A06).
T3 sequence: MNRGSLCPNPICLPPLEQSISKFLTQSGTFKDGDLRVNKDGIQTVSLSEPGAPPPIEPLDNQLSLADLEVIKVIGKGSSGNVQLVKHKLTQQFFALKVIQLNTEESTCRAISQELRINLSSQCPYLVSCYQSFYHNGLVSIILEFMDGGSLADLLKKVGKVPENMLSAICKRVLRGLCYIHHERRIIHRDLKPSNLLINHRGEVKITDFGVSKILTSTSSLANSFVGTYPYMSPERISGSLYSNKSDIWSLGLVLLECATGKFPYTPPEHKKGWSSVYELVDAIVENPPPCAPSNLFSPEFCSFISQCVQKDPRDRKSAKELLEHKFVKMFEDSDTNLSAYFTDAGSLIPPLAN
The test is described as above.

In a further test the target is T4, YFPN–MKK5 (Arabidopsis) (UniProt Q8RXG3).
T4 sequence: T1 sequence
Kind of test: split reporter; BiFC in transgenic Arabidopsis plants: YFPN fusion plants pollinated with YFPC–MKD1 plants, grown on MS medium for 10 d; YFP signal by microscopy (root tip).

Test [4] concerns the target T5, AtNFXL1 fused to YFPN (BiFC, transgenic Arabidopsis) (Arabidopsis) (UniProt Q9SY59).
T5 sequence: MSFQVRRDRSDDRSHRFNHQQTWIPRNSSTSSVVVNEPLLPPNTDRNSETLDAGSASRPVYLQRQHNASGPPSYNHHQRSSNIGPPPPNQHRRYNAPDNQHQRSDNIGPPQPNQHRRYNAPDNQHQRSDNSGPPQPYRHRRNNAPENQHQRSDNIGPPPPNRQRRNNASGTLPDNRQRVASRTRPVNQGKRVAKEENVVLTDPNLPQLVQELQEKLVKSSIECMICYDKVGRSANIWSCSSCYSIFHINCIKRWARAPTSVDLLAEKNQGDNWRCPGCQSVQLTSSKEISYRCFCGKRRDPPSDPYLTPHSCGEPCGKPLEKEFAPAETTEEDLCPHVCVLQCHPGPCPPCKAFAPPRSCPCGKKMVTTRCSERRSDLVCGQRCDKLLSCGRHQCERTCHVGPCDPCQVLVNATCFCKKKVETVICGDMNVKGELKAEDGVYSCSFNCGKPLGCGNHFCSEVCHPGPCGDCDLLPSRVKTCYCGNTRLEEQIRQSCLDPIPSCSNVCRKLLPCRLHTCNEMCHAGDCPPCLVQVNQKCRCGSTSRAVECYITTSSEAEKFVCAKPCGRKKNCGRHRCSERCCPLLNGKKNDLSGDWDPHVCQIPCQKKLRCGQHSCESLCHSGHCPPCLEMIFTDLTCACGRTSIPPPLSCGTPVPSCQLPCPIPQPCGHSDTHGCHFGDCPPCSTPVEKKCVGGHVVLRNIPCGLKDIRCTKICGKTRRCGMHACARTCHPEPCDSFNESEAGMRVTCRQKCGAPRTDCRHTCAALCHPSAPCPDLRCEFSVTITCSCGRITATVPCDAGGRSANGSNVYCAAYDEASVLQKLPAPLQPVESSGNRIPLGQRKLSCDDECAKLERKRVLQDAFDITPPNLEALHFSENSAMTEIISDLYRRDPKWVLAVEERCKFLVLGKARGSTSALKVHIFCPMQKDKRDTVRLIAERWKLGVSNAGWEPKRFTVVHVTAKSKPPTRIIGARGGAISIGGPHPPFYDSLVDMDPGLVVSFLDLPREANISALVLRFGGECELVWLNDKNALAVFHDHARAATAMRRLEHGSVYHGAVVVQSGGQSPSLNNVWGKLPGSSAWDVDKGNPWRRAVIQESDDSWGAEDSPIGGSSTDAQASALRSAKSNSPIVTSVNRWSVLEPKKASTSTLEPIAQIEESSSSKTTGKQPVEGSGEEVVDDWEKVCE
The description is as above.

The target of a further test is T6, YFPN–MKK2 (Arabidopsis) (UniProt Q9S7U9).
T6 sequence: T2 sequence
The description is as above.

The target of another test is T7, YFPN–MKK1 (Arabidopsis) (UniProt Q94A06).
T7 sequence: T3 sequence
The test is described as above.

In test [5] the target is T8, MKK2 (yeast two-hybrid fusion in pGBKT7) (Arabidopsis) (UniProt Q9S7U9).
T8 sequence: T2 sequence
Kind of test: two-hybrid; MKKs in pGBKT7, MKD1 and MPKs in pGADT7, yeast strain Y190; β-galactosidase activity measured in diploids.

Test [6] has as its target T9, MKK1 (yeast two-hybrid fusion in pGBKT7) (Arabidopsis) (UniProt Q94A06).
T9 sequence: T3 sequence
Described as above.

Test [7] deals with T10, MKK5 (yeast two-hybrid fusion in pGBKT7) (Arabidopsis) (UniProt Q8RXG3).
T10 sequence: T1 sequence
The description is as above.

The values that follow come from paper PMC7094076.

Results are given in words; binding and its absence hold for the method and conditions named. A result given as binding can be weak or reduced; the word gives no strength. For some of these results: Tags and fused reporters may be left off the sequences shown. For some of these results: Binding seen in cells or lysates may run through a third protein.

As to “MKD1 (split Venus fusion, BiFC in onion epidermis) (from UniProt F4JZD0)”, the binding result in test [1], in test [2] and in [3] was “binds” in each case.

In the case of YFPC–MKD1 (Arabidopsis), the binding result (in the test with YFPN–MKK5 (Arabidopsis); in test [4]; with YFPN–MKK2 (Arabidopsis); in the test with YFPN–MKK1 (Arabidopsis)) was “binds” each time.

“full-length MKD1 (yeast two-hybrid fusion in pGADT7) (from UniProt F4JZD0)”: the binding entry in test [5], in test [6] and in [7] was “binds” throughout.

On to “kinase domain of MKD1 (yeast two-hybrid fusion in pGADT7) (Arabidopsis) (domain or fragment)”, for which the binding result in test [5] is reported as “binds weakly”; in test [6], “binds weakly”; in [7] it was “no binding”.
